# This is one part of the list. Single values are uncertain here, since repeats match poorly.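 HEK293T cells were given each compound shortly before transfection with a reporter in which red mCherry is followed by the SARS-CoV-2 frameshift element and then GFP in the −1 frame, so GFP appears only after frameshifting.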
# System: HEK293T
# Assay: percent viability (nuclei count) relative to control; higher = more viable cells
# Conditions: 10 µM; 24 h
row,Structure (SMILES),percent viability
1,CCOC(=O)c1ccc(OC(=O)CCCCCNC(=N)N)cc1 [gabexate],191%
2,O=C(O)[C@@H](c1ccc(OCc2ccc3ccccc3n2)cc1)C1CCCC1 [veliflapon],142%
3,CCOC(=O)c1ccc(N(CC(C)O)CC(C)O)cc1 (stereo not drawn) [roxadimate],279%

# Reference: the supplement of paper PMC8256030
